According to doi:10.1101/569251:
Like-named read-outs stand apart in the source and are kept apart here. Results are given in words; binding and its absence hold for the method and conditions named. For part of these data: Binding seen in cells or lysates may run through a third protein. Some results given as binding are weak or reduced against the parent protein; the word gives no strength. Tags and fused reporters may be left off the sequences shown. Blank lines part the entries; values can stand above or below the binder they belong to.

Experiments:
[1] = target: T1, SEPT7 (residues 29-437) with N-terminal His-tag (human) (UniProt Q16181); assay: pull-down + SEC
T1 sequence: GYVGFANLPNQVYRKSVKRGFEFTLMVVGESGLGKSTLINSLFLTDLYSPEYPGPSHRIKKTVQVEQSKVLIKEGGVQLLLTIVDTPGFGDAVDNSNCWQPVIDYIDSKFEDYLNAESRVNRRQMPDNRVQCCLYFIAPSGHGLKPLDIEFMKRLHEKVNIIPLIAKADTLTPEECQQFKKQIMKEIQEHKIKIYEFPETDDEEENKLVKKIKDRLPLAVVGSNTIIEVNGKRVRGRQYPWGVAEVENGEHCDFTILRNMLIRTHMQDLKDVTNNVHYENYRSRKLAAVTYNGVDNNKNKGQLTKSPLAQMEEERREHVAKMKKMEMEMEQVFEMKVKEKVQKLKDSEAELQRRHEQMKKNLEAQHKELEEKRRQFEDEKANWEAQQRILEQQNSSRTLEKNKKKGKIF

SEPT6 (human) = target: T2, SEPT6 (human) (UniProt Q14141)
T2 sequence: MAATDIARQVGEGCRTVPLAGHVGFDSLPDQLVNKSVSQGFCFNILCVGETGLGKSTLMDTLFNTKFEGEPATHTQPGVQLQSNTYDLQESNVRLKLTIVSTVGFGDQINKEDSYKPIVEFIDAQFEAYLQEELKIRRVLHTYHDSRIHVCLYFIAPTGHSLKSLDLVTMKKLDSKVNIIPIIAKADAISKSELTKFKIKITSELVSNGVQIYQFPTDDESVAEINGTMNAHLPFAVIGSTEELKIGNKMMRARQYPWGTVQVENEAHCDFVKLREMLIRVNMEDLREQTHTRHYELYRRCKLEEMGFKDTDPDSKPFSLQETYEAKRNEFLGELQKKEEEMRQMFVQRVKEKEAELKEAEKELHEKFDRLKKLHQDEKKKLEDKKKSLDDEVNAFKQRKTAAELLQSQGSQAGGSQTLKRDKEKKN

[2] = target: T1, SEPT7 (residues 29-437) with N-terminal His-tag (human); assay: pull-down + SEC; remark: listed apart in the source
[3] = target: T1, SEPT7 (residues 29-437) with N-terminal His-tag (human)

binding [1]: binds
binding (SEPT6 (human)): binds
B1: SEPT5 (without MBP) (protein, UniProt Q99719-1 1-369)
chain: MSTGLRYKSKLATPEDKQDIDKQYVGFATLPNQVHRKSVKKGFDFTLMVAGESGLGKSTLVHSLFLTDLYKDRKLLSAEERISQTVEILKHTVDIEEKGVKLKLTIVDTPGFGDAVNNTECWKPITDYVDQQFEQYFRDESGLNRKNIQDNRVHCCLYFISPFGHGLRPVDVGFMKALHEKVNIVPLIAKADCLVPSEIRKLKERIREEIDKFGIHVYQFPECDSDEDEDFKQQDRELKESAPFAVIGSNTVVEAKGQRVRGRLYPWGIVEVENQAHCDFVKLRNMLIRTHMHDLKDVTCDVHYENYRAHCIQQMTSKLTQDSRMESPIPILPLPTPDAETEKLIRMKDEELRRMQEMLQRMKQQMQDQ

binding [1]: binds
binding (SEPT6 (human)): binds
B2: MBP-SEPT5 (protein, UniProt Q99719-1 1-369)
chain: B1 chain

binding [2]: binds
binding [1]: binds
binding [3]: binds
B3: SEPT6 (protein, UniProt Q14141-2 1-427)
chain: T2 sequence

binding [2]: binds
binding (SEPT6 (human)): binds
B4: MBP-SEPT2 (protein, UniProt Q15019-1 1-361)
chain: MSKQQPTQFINPETPGYVGFANLPNQVHRKSVKKGFEFTLMVVGESGLGKSTLINSLFLTDLYPERVIPGAAEKIERTVQIEASTVEIEERGVKLRLTVVDTPGYGDAINCRDCFKTIISYIDEQFERYLHDESGLNRRHIIDNRVHCCFYFISPFGHGLKPLDVAFMKAIHNKVNIVPVIAKADTLTLKERERLKKRILDEIEEHNIKIYHLPDAESDEDEDFKEQTRLLKASIPFSVVGSNQLIEAKGKKVRGRLYPWGVVEVENPEHNDFLKLRTMLITHMQDLQEVTQDLHYENFRSERLKRGGRKVENEDMNKDQILLEKEAELRRMQEMIARMQAQMQMQMQGGDGDGGALGHHV
